Experimental data published in publication PMC4388270.
Results are given in words; binding and its absence hold for the method and conditions named. Values belong to the binder of their own block, whether it stands above or below them.

Columns and labels:
[1] = target: FnIII-3,4 region of integrin β4 (residues 1457–1666), wild type (human) (UniProt P16144); assay: condition: 1.5 to 48.6 mg ml^-1 (data extrapolated to infinite dilution); SAXS; wild-type FnIII-3,4 in solution at 1.5, 3.0, 6.1, 12.2, 24.3 and 48.6 mg ml^-1, 283 K, 20 mM sodium phosphate pH 7.5, 150 mM NaCl, 5% glycerol, 3 mM DTT; data extrapolated to infinite dilution; mass from the excluded volume of DAMMIF models against the mass from the sequence; both purified
[2] = target: FnIII-3,4 mutant L1497C/C1608/S1626C, labelled with MTSL (human) (UniProt P16144); assay: SAXS; MTSL-labelled FnIII-3,4 mutants in solution, 20 mM sodium phosphate pH 7.5, 150 mM NaCl, 5% glycerol; measured and processed as the wild type, detector distance 3.1 m; both purified
[3] = target: FnIII-3,4 mutant R1504C/N1598C/C1608, labelled with MTSL (human) (UniProt P16144); assay: as above
[4] = target: FnIII-3,4 mutant R1504C/C1608/S1626C, labelled with MTSL (human) (UniProt P16144); assay: as above
[5] = target: FnIII-3,4 mutant T1472C/C1608/S1626C, labelled with MTSL (human) (UniProt P16144); assay: as above
[6] = target: FnIII-3,4 mutant T1472C/C1608/R1630C, labelled with MTSL (human) (UniProt P16144); assay: as above
[7] = target: FnIII-3,4 mutant R1504C/C1608/R1630C, labelled with MTSL (human) (UniProt P16144); assay: as above
[8] = target: FnIII-3,4 mutant T1472C/S1590C/C1608, labelled with MTSL (human) (UniProt P16144); assay: as above
[9] = target: FnIII-3,4 mutant L1497C/N1598C/C1608, labelled with MTSL (human) (UniProt P16144); assay: as above

binding [1]: no binding
B1: FnIII-3,4 region of integrin β4 (residues 1457–1666), wild type (domain or fragment, UniProt P16144-2 1457-1666)
chain: GSHMVPDTPTRLVFSALGPTSLRVSWQEPRCERPLQGYSVEYQLLNGGELHRLNIPNPAQTSVVVEDLLPNHSYVFRVRAQSQEGWGREREGVITIESQVHPQSPLCPLPGSAFTLSTPSAPGPLVFTALSPDSLQLSWERPRRPNGDIVGYLVTCEMAQGGGPATAFRVDGDSPESRLTVPGLSENVPYKFKVQARTTEGFGPEREGIITIES

binding [2]: no binding
B2: FnIII-3,4 mutant L1497C/C1608/S1626C, labelled with MTSL (domain or fragment, UniProt P16144-2 1457-1666)
chain: GSHMVPDTPTRLVFSALGPTSLRVSWQEPRSERPLQGYSVEYQLCNGGELHRLNIPNPAQTSVVVEDLLPNHSYVFRVRAQSQEGWGREREGVITIESQVHPQSPLAPLPGSAFTLSTPSAPGPLVFTALSPDSLQLSWERPRRPNGDIVGYLVTCEMAQGGGPATAFRVDGDCPESRLTVPGLSENVPYKFKVQARTTEGFGPEREGIITIES
modifications: MTSL nitroxide spin label on Cys 1497, 1608 and 1626

binding [3]: no binding
B3: FnIII-3,4 mutant R1504C/N1598C/C1608, labelled with MTSL (domain or fragment, UniProt P16144-2 1457-1666)
chain: GSHMVPDTPTRLVFSALGPTSLRVSWQEPRSERPLQGYSVEYQLLNGGELHCLNIPNPAQTSVVVEDLLPNHSYVFRVRAQSQEGWGREREGVITIESQVHPQSPLAPLPGSAFTLSTPSAPGPLVFTALSPDSLQLSWERPRRPCGDIVGYLVTCEMAQGGGPATAFRVDGDSPESRLTVPGLSENVPYKFKVQARTTEGFGPEREGIITIES
modifications: MTSL nitroxide spin label on Cys 1504, 1598 and 1608

binding [4]: no binding
B4: FnIII-3,4 mutant R1504C/C1608/S1626C, labelled with MTSL (domain or fragment, UniProt P16144-2 1457-1666)
chain: GSHMVPDTPTRLVFSALGPTSLRVSWQEPRSERPLQGYSVEYQLLNGGELHCLNIPNPAQTSVVVEDLLPNHSYVFRVRAQSQEGWGREREGVITIESQVHPQSPLAPLPGSAFTLSTPSAPGPLVFTALSPDSLQLSWERPRRPNGDIVGYLVTCEMAQGGGPATAFRVDGDCPESRLTVPGLSENVPYKFKVQARTTEGFGPEREGIITIES
modifications: MTSL nitroxide spin label on Cys 1504, 1608 and 1626

binding [5]: no binding
B5: FnIII-3,4 mutant T1472C/C1608/S1626C, labelled with MTSL (domain or fragment, UniProt P16144-2 1457-1666)
chain: GSHMVPDTPTRLVFSALGPCSLRVSWQEPRSERPLQGYSVEYQLLNGGELHRLNIPNPAQTSVVVEDLLPNHSYVFRVRAQSQEGWGREREGVITIESQVHPQSPLAPLPGSAFTLSTPSAPGPLVFTALSPDSLQLSWERPRRPNGDIVGYLVTCEMAQGGGPATAFRVDGDCPESRLTVPGLSENVPYKFKVQARTTEGFGPEREGIITIES
modifications: MTSL nitroxide spin label on Cys 1472, 1608 and 1626

binding [6]: no binding
B6: FnIII-3,4 mutant T1472C/C1608/R1630C, labelled with MTSL (domain or fragment, UniProt P16144-2 1457-1666)
chain: GSHMVPDTPTRLVFSALGPCSLRVSWQEPRSERPLQGYSVEYQLLNGGELHRLNIPNPAQTSVVVEDLLPNHSYVFRVRAQSQEGWGREREGVITIESQVHPQSPLAPLPGSAFTLSTPSAPGPLVFTALSPDSLQLSWERPRRPNGDIVGYLVTCEMAQGGGPATAFRVDGDSPESCLTVPGLSENVPYKFKVQARTTEGFGPEREGIITIES
modifications: MTSL nitroxide spin label on Cys 1472, 1608 and 1630

binding [7]: no binding
B7: FnIII-3,4 mutant R1504C/C1608/R1630C, labelled with MTSL (domain or fragment, UniProt P16144-2 1457-1666)
chain: GSHMVPDTPTRLVFSALGPTSLRVSWQEPRSERPLQGYSVEYQLLNGGELHCLNIPNPAQTSVVVEDLLPNHSYVFRVRAQSQEGWGREREGVITIESQVHPQSPLAPLPGSAFTLSTPSAPGPLVFTALSPDSLQLSWERPRRPNGDIVGYLVTCEMAQGGGPATAFRVDGDSPESCLTVPGLSENVPYKFKVQARTTEGFGPEREGIITIES
modifications: MTSL nitroxide spin label on Cys 1504, 1608 and 1630

binding [8]: no binding
B8: FnIII-3,4 mutant T1472C/S1590C/C1608, labelled with MTSL (domain or fragment, UniProt P16144-2 1457-1666)
chain: GSHMVPDTPTRLVFSALGPCSLRVSWQEPRSERPLQGYSVEYQLLNGGELHRLNIPNPAQTSVVVEDLLPNHSYVFRVRAQSQEGWGREREGVITIESQVHPQSPLAPLPGSAFTLSTPSAPGPLVFTALSPDSLQLCWERPRRPNGDIVGYLVTCEMAQGGGPATAFRVDGDSPESRLTVPGLSENVPYKFKVQARTTEGFGPEREGIITIES
modifications: MTSL nitroxide spin label on Cys 1472, 1590 and 1608

binding [9]: no binding
B9: FnIII-3,4 mutant L1497C/N1598C/C1608, labelled with MTSL (domain or fragment, UniProt P16144-2 1457-1666)
chain: GSHMVPDTPTRLVFSALGPTSLRVSWQEPRSERPLQGYSVEYQLCNGGELHRLNIPNPAQTSVVVEDLLPNHSYVFRVRAQSQEGWGREREGVITIESQVHPQSPLAPLPGSAFTLSTPSAPGPLVFTALSPDSLQLSWERPRRPCGDIVGYLVTCEMAQGGGPATAFRVDGDSPESRLTVPGLSENVPYKFKVQARTTEGFGPEREGIITIES
modifications: MTSL nitroxide spin label on Cys 1497, 1598 and 1608
